Test results: publication PMC10687119, “Quaternary Ammonium Salts of Cationic Lipopeptides with Lysine Residues — Synthesis, Antimicrobial, Hemolytic and Cytotoxic Activities” (Probiotics and Antimicrobial Proteins, 2023)
Where two headings read alike, the source gives them in different places.

What was measured:
[1] = tested on: P. aeruginosa ATCC 9027; assay type: cell-based, Pseudomonas aeruginosa
Method: (§1) The Acinetobacter baumannii ATCC BAA-1605, Enterococcus faecium ATCC 700221, Klebsiella aerogenes ATCC 13048, Klebsiella pneumoniae ATCC 700603, Pseudomonas aeruginosa ATCC 9027, Staphylococcus aureus ATCC 33591, Candida glabrata ATCC 15126 strains were acquired from the American Type Culture Collection (ATCC, Manassas, USA). All the strains were stored at −80 °C in Roti-Store cryo vials (Carl Roth GmbH, Germany) and before the tests were transferred into fresh Mueller–Hinton broth (MHB, Becton Dickinson, Poland) for bacteria or RPMI-1640 (Sigma-Aldrich, Germany) for fungi and incubated for 24 h at 37 °C. Then, the cultures were cultured on the Mueller–Hinton agar (BioMaxima, Poland) or Sabouraud dextrose agar (SDA, BioMaxima) plates, respectively, and incubated as just mentioned. For microbiological assays, a minimum of three to five well-isolated colonies of the same morphological type were carefully picked from the agar cultures. These colonies were transferred with sterile loop into fresh microbiological medium and incubated with shaking (100 rpm) at 37 °C until they reached logarithmic phase of growth. Cell densities for all assays were adjusted through spectrophotometric measurements (Multiskan GO Microplate Spectrophotometer, Thermo Fisher Scientific, Finland) at 600 and 530 nm for bacteria and fungi, respectively.
(§2) The MICs were determined by broth microdilution method according to the Clinical and Laboratory Standard Institute guidelines. For this purpose, initial inoculums of bacteria (5 × 10^5 CFU/mL) in MHB and yeasts (2 × 10^3 CFU/mL) in RPMI-1640 with 2% D-glucose were exposed to the ranging concentration of lipopeptides (1–512 μg/mL) and incubated at 37 °C for 18 h and 24 h, respectively. The experiments were conducted on 96-well microtiter polystyrene plates (Kartell, Italy). The growth was assessed visually after incubation and the MIC was assumed as the lowest peptide concentration at which a noticeable growth of microorganisms was inhibited. Benzalkonium chloride (Sigma-Aldrich, Germany) was used as reference compound. All experiments were conducted in triplicate.

[2] = tested on: K. aerogenes ATCC 13048; assay type: cell-based, Klebsiella aerogenes
Method: as §1, §2

[3] = tested on: E. faecium ATCC 700221; assay type: cell-based, Enterococcus faecium; settings: HC50/MIC
Method: as §1, §2

[4] = tested on: C. glabrata ATCC 15126; assay type: cell-based, Candida glabrata; settings: HC50/MIC
Method: as §1, §2

[5] = tested on: K. pneumoniae ATCC 700603; assay type: cell-based, Klebsiella pneumoniae
Method: as §1, §2

[6] = tested on: A. baumannii ATCC BAA 1605; assay type: cell-based, Acinetobacter baumannii
Method: as §1, §2

[7] = tested on: S. aureus ATCC 33591; assay type: cell-based, Staphylococcus aureus; settings: HC50/MIC
Method: as §1, §2

benzalkonium chloride [BAC, reference compound]
Selectivity index (SI) P. aeruginosa ([1]; HC50/MIC): 1.19
Selectivity index (SI) P. aeruginosa ([1]; IC50 (HaCaT)/MIC): 0.36
Selectivity index (SI) K. aerogenes ([2]; HC50/MIC): 2.37
Selectivity index (SI) K. aerogenes ([2]; IC50 (HaCaT)/MIC): 0.72
Selectivity index (SI) E. faecium [3]: 9.50
Selectivity index (SI) C. glabrata [4]: 9.50
Selectivity index (SI) K. pneumoniae ([5]; HC50/MIC): 2.37
Selectivity index (SI) K. pneumoniae ([5]; IC50 (HaCaT)/MIC): 0.72
Selectivity index (SI) A. baumannii ([6]; HC50/MIC): 2.37
Selectivity index (SI) A. baumannii ([6]; IC50 (HaCaT)/MIC): 0.72
Selectivity index (SI) S. aureus [7]: 9.50
